Measured values from patent US12595239B2, “Substituted isoxazoline derivatives” (BASF SE, priority 2021, dated 2026).
Some entries share one result that the patent states for a list of compounds. At least one structure is not confirmed: it was looked up by name or label, or the drawing left a doubt.

How the values were obtained:
Format in all cases: in vivo
Aedes aegypti = conditions: 2500 ppm; larval mortality, 2 days
Procedure: For evaluating control of Yellow Fever Mosquito, the test unit consisted of 96-well-microtiter plates containing 200 μl of tap water per well and 5-15 freshly hatched A. aegypti larvae. The active compounds were formulated using a solution containing 75% (v/v) water and 25% (v/v) DMSO. Different concentrations of formulated compounds or mixtures were sprayed onto the insect diet at 2.5 μl, using a custom-built micro atomizer, at two replications.
After application, microtiter plates were incubated at 28±1° C., 80±5% RH for 2 days. Larval mortality was then visually assessed.

Heliothis virescens = assay: B.4 Tobacco Budworm, microtiter plate diet test; conditions: 2500 ppm; egg and larval mortality, 5 days
Procedure: For evaluating control of Tobacco Budworm, the test unit consisted of 96-well-microtiter plates containing an insect diet and 15-25 H. virescens eggs. The compounds were formulated using a solution containing 75% v/v water and 25% v/v DMSO. Different concentrations of formulated compounds were sprayed onto the insect diet at 10 μl, using a custom-built micro atomizer, at two replications. After application, microtiter plates were incubated at about 28±1° C. and about 80±5% relative humidity for 5 days. Egg and larval mortality was then visually assessed.

Myzus persicae = assay: B.3 Green Peach Aphid (mixed life stages), systemic artificial diet test; conditions: 2500 ppm; treated aphid diet, 3 days
Text: For evaluating control of Green Peach Aphid through systemic means the test unit consisted of 96-well-microtiter plates containing liquid artificial diet under an artificial membrane. The compounds were formulated using a solution containing 75% v/v water and 25% v/v DMSO. Different concentrations of formulated compounds were pipetted into the aphid diet, using a custom-built pipette, at two replications. After application, 5-8 adult aphids were placed on the artificial membrane inside the microtiter plate wells. The aphids were then allowed to suck on the treated aphid diet and incubated at about 23±1° C. and about 50±5% relative humidity for 3 days. Aphid mortality and fecundity was then visually assessed.

Anthonomus grandis = assay: B.1 Boll weevil (Anthonomus grandis), 96-well microtiter plate diet test; conditions: 2500 ppm; egg and larval mortality, 5 days
Procedure: For evaluating control of boll weevil, the test unit consisted of 96-well-microtiter plates containing an insect diet and 5-10 A. grandis eggs.
The compounds were formulated using a solution containing 75% v/v water and 25% v/v DMSO. Different concentrations of formulated compounds were sprayed onto the insect diet at 5 μl, using a custom-built micro atomizer, at two replications.
After application, microtiter plates were incubated at about 25±1° C. and about 75±5% relative humidity for 5 days. Egg and larval mortality were then visually assessed.

Measured: mortality in comparison with untreated controls

CCN(C1=NOC(c2cc(Cl)c(F)c(Cl)c2)(C(F)(F)F)C1)c1ccc(Cl)c(C(=O)NC2CON(C)C2=O)c1 (mixture of isomers) [I-197]
at least 75%: all assays above

O=C(Nc1ccc(Cl)cn1)c1cc(NC2=NOC(c3cc(Cl)c(F)c(Cl)c3)(C(F)(F)F)C2)ccc1Cl (stereo not shown) [I-244]
at least 75%: all assays above

COCN(C1=NOC(c2cc(Cl)c(F)c(Cl)c2)(C(F)(F)F)C1)c1ccc(Cl)c(C(=O)Nc2ccc(C#N)cn2)c1 (stereo not shown) [I-181]
at least 75%: all assays above

CCN(C1=NOC(c2cc(Cl)c(F)c(Cl)c2)(C(F)(F)F)C1)c1ccc(C)c(C(=O)N[C@@H]2CON(C)C2=O)c1 (stereo partly shown) [I-184]
at least 75%: all assays above

CCN(C1=NOC(c2ccc(F)c(Cl)c2)(C(F)(F)F)C1)c1ccc(Cl)c(C(=O)NC2(C#N)CC2)c1 (stereo not shown) [I-233]
at least 75%: all assays above

Cc1ccc(NC(=O)c2cc(NC3=NOC(c4cc(Cl)c(F)c(Cl)c4)(C(F)(F)F)C3)ccc2Cl)nc1 (stereo not shown) [I-235]
at least 75%: all assays above

COc1ccc(NC(=O)c2cc(NC3=NOC(c4cc(Cl)c(F)c(Cl)c4)(C(F)(F)F)C3)ccc2Cl)nc1 (stereo not shown) [I-236]
at least 75%: all assays above

N#CC1(NC(=O)c2cc(NC3=NOC(c4cc(C(F)(F)F)cs4)(C(F)(F)F)C3)ccc2Cl)CC1 (stereo not shown) [I-177]
at least 75%: Aedes aegypti | Myzus persicae | Anthonomus grandis

CCN(C1=NOC(c2cc(Cl)c(F)c(Cl)c2)(C(F)(F)F)C1)c1ccc(Cl)c(C(=O)NC2(C#N)CC2)c1 (stereo not shown) [I-189]
at least 75%: Aedes aegypti | Heliothis virescens | Anthonomus grandis

CCN(C1=NOC(c2cc(Cl)c(F)c(Cl)c2)(C(F)(F)F)C1)c1ccc(Cl)c(C(=O)Nc2ccc(F)cn2)c1 (stereo not shown) [I-183]
at least 75%: all assays above

CCN1OC[C@@H](NC(=O)c2cc(OC3=NOC(c4cc(Cl)c(F)c(Cl)c4)(C(F)(F)F)C3)ccc2Cl)C1=O (stereo partly shown) [II-9]
at least 75%: all assays above

CS(=O)(=O)c1ccc(NC(=O)c2cc(NC3=NOC(c4cc(Cl)c(F)c(Cl)c4)(C(F)(F)F)C3)ccc2Cl)nc1 (stereo not shown) [I-242]
at least 75%: all assays above

CCN(C1=NOC(c2cc(Cl)c(F)c(Cl)c2)(C(F)(F)F)C1)c1ccc(C)c(C(=O)Nc2ccc(F)cn2)c1 (stereo not shown) [I-194]
at least 75%: all assays above

CCN(C1=NOC(c2ccc(F)c(Cl)c2)(C(F)(F)F)C1)c1ccc(Cl)c(C(=O)Nc2ccc(C#N)cn2)c1 (stereo not shown) [I-228]
at least 75%: all assays above

CCN(C1=NOC(c2ccc(F)c(Cl)c2)(C(F)(F)F)C1)c1ccc(Cl)c(C(=O)Nc2ccc(Cl)cn2)c1 (stereo not shown) [I-234]
at least 75%: Aedes aegypti | Heliothis virescens | Anthonomus grandis

CN(C)C(=O)c1ccc(NC(=O)c2cc(NC3=NOC(c4cc(Cl)c(F)c(Cl)c4)(C(F)(F)F)C3)ccc2Cl)nc1 (stereo not shown) [I-249]
at least 75%: all assays above

CC(=O)Nc1cccc(NC(=O)c2cc(NC3=NOC(c4cc(Cl)c(F)c(Cl)c4)(C(F)(F)F)C3)ccc2Cl)n1 (stereo not shown) [I-248]
at least 75%: all assays above

CCOC(=O)N(C1=NOC(c2cc(Cl)c(F)c(Cl)c2)(C(F)(F)F)C1)c1ccc(Cl)c(C(=O)Nc2ccc(Cl)cn2)c1 (stereo not shown) [I-214]
at least 75%: Aedes aegypti | Heliothis virescens | Anthonomus grandis

O=C(Nc1cncnc1)c1cc(NC2=NOC(c3cc(Cl)c(F)c(Cl)c3)(C(F)(F)F)C2)ccc1Cl (stereo not shown) [I-252]
at least 75%: all assays above

CCN(C1=NOC(c2cc(Cl)cc(Cl)c2)(C(F)(F)F)C1)c1ccc(OC(F)(F)F)c(C(=O)NC2CC2)c1 (stereo not shown) [I-199]
at least 75%: Aedes aegypti | Heliothis virescens | Anthonomus grandis

CCN(C1=NOC(c2cc(Cl)cc(Cl)c2)(C(F)(F)F)C1)c1ccc(F)c(C(=O)Nc2ccc(Cl)cn2)c1 (stereo not shown) [I-223]
at least 75%: Aedes aegypti | Heliothis virescens | Anthonomus grandis

N#CC1(NC(=O)c2cc(NC3=NOC(c4cc(Cl)cc(Cl)c4)(C(F)(F)F)C3)ccc2Cl)CC1 (stereo not shown) [I-3]
at least 75%: Myzus persicae

CCOC(=O)N(C1=NOC(c2cc(Cl)c(F)c(Cl)c2)(C(F)(F)F)C1)c1ccc(Cl)c(C(=O)NC2CON(C)C2=O)c1 (mixture of isomers) [I-208]
at least 75%: Aedes aegypti | Heliothis virescens | Anthonomus grandis

CCOC(=O)N(C1=NOC(c2cc(Cl)c(F)c(Cl)c2)(C(F)(F)F)C1)c1ccc(Cl)c(C(=O)Nc2ccccn2)c1 (stereo not shown) [I-204]
at least 75%: Aedes aegypti | Heliothis virescens | Anthonomus grandis

CCOC(=O)N(C1=NOC(c2cc(Cl)c(F)c(Cl)c2)(C(F)(F)F)C1)c1ccc(Cl)c(C(=O)Nc2ccc(F)cn2)c1 (stereo not shown) [I-207]
at least 75%: Aedes aegypti | Heliothis virescens | Anthonomus grandis

CCOC(=O)N(C1=NOC(c2cc(Cl)c(F)c(Cl)c2)(C(F)(F)F)C1)c1ccc(Cl)c(C(=O)NC2(C#N)CC2)c1 (stereo not shown) [I-209]
at least 75%: Aedes aegypti | Heliothis virescens | Anthonomus grandis

CCOC(=O)N(C1=NOC(c2cc(Cl)c(F)c(Cl)c2)(C(F)(F)F)C1)c1ccc(Cl)c(C(=O)N(C)c2ccccn2)c1 (stereo not shown) [I-205]
at least 75%: Aedes aegypti | Heliothis virescens | Anthonomus grandis

CCN(C1=NOC(c2cc(Cl)c(F)c(Cl)c2)(C(F)(F)F)C1)c1ccc(C)c(C(=O)NC2(C#N)CC2)c1 (stereo not shown) [I-198]
at least 75%: Aedes aegypti | Heliothis virescens | Anthonomus grandis
